No constants are given. Whether binding was seen depends on the method and setting. In cells and extracts the contact can be indirect. A yes stands for co-enrichment or nearness to the bait. Other partners may have been found.
Molecular target: rat DOC2b-GFP (double C2 like domain beta) (rat) (UniProt P70610)
Test: affinity purification with mass spectrometry

By UniProt entry, the sequences of proteins in these tests, tags left out.
UniProt P70610: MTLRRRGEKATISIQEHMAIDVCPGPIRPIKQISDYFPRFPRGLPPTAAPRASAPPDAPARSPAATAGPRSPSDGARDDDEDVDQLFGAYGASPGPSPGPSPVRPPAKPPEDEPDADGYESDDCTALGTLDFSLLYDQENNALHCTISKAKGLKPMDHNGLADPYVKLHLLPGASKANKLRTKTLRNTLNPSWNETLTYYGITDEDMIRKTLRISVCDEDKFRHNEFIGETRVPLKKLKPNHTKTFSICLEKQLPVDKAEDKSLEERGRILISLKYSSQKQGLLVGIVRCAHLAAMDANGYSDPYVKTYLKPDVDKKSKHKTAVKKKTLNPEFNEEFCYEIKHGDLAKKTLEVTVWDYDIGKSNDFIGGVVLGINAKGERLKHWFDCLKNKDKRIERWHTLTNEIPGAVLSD

B1: IKKβ (protein, UniProt Q9QY78 1-757)
chain: MSWSPSLPTQTCGAWEMKERLGTGGFGNVIRWHNQVTGEQIAIKQCRQELSPKNRDRWCLEIQIMRRLNHPNVVAARDVPEGMQNLAPNDLPLLAMEYCQGGDLRRYLNQFENCCGLREGAILTLLSDIASALRYLHENRIIHRDLKPENIVLQQGEKRLIHKIIDLGYAKELDQGSLCTSFVGTLQYLAPELLEQQKYTVTVDYWSFGTLAFECITGFRPFLPNWQPVQWHSKVRQKSEVDIVVSEDLNGTVKFSSSSPFPNNLNSVLAERLEKWLQLMLTWQPRQRGVDPQYGPNGCFRALDDILNLKLVHILNMVTGTIHTYPVMEDESLQSLKTRIREDTGILETDQELLQEAGLVLLPDKPATQCISDSKTNEGLTLDMDLVFLFDNSKMSYETQITPRPQPESVSCVLQEPKRNLSFFQMRKVWGQVWHSIQTLKEDCNRLQQGQRAAMMNLLRNNSCLSKMKNAMASTAQQLKAKLDFFKTSIQIDLEKYREQTEFGITSDKLLLAWREMEQAVEQCGRENDVKVLVERMMALQTDIVDLQRSPMGRKQGGTLDDLEEQARELYRRLREKPRDQRTEGDSQDMVRLLLQAIQSFEKKVRVIYSQLSKTVVCKQKALELLPKVEEVVRLMNEDEKTVVRLQEKRQKELWNLLKIACSKVRGPVSGSPDSMNVSRLSHPGHLMSQPSSACDSLPDSDKKSEELVAEAHALCSRLESALQDTVKQQDRSFTTLDWSWLQMEDEERCGLEQACD
binding: binds

B2: STAT-1 (protein, UniProt Q9QXK0 1-749)
chain: MSQWFELQQLDSKFLEQVHQLYDDSFPMEIRQYLAQWLEKQDWEHAAYDVSFATIRFHDLLSQLDDQYSRFSLENNFLLQHNIRKSKRNLQDNFQEDPVQMSMIIHNCLKEERKILENAQRFNQAQEGNIQNTVMLDKQKELDSKVRNVKDQVMCIEHEIKTLEDLQDEYDFKCKTSQNRESEANGVAKSDQKQEQLLLHKMFLMLDNKRKEIIHKIRELLNSIELTQNTLINDELVEWKRRQQSACIGGPPNACLDQLQSWFTIVAESLQQVRQQLKKLEELEQKFTYEQDPITKNKQVLSDRTFVLFQQLIQSSFVVERQPCMPTHPQRPLVLKTGVQFTVKLRLLVKLQELNYNLKVKVSFDKDVNEKNTVKGFRKFNILGTHTKVMNMEESTNGSLAAEFRHLQLKEQKNAGNRTNEGPLIVTEELHSLSFETQLCQPGLVIDLETTSLPVVVISNVSQLPSGWASILWYNMLVTEPRNLSFFLNPPCAWWSQLSEVLSWQFSSVTKRGLNADQLSMLGEKLLGPNAGPDGLIPWTRFCKENINDKNFSFWPWIDTILELIKKHLLCLWNDGCIMGFISKERERALLKDQQPGTFLLRFSESSREGAITFTWVERSQNGGEPDFHAVEPYTKKELSAVTFPDIIRNYKVMAAENIPENPLKYLYPNIDKDHAFGKYYSRPKEAPEPMELDDPKRTGYIKTELISVSEVHPSRLQSTENLLPMSPEEFDEMSKIVGSEFDSMMSAV
binding: binds

From doi:10.1101/2024.12.22.629540
